From patent US20190025321A1
Results are given in words; binding and its absence hold for the method and conditions named. For some assays here: In cells and extracts the contact can be indirect. Some results given as binding are weak or reduced against the parent protein; the word gives no strength.

Assays:
[1] = molecular target: T1, recombinant CASTOR2 (protein encoded by the GATSL2 gene) (human) (UniProt A6NHX0); experiment: co-immunoprecipitation, anti-HA IP from co-transfected HEK-293T cells, immunoblot; bait CASTOR1-HA, prey CASTOR2-FLAG
T1 sequence (looked up): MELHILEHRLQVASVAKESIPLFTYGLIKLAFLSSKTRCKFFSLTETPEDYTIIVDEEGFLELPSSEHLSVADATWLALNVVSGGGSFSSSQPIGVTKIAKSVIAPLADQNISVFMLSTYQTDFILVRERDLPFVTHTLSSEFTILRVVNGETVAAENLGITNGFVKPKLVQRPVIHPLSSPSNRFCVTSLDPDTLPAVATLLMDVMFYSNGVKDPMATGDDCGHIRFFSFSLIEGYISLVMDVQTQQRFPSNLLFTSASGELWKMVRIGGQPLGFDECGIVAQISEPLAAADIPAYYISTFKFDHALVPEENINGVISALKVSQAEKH

[2] = molecular target: T1, recombinant CASTOR2 (protein encoded by the GATSL2 gene) (human); experiment: anti-HA co-immunoprecipitation, HEK-293T cells (FIG. 2A)
[3] = molecular target: T2, recombinant CASTOR1 (Cellular Arginine Sensor for mTORC1; protein encoded by the GATS protein-like 3 gene) (human) (UniProt Q8WTX7); experiment: as above
T2 sequence (looked up): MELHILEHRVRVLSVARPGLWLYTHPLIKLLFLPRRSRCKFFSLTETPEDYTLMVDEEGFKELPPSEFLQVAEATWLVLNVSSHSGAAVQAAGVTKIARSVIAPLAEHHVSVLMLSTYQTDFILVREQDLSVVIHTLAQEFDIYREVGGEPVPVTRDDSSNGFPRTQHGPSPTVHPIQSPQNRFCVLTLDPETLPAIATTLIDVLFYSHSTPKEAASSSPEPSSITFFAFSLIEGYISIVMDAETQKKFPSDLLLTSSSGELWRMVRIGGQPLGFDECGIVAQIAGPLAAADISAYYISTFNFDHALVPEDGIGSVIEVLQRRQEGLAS

[4] = molecular target: T3, endogenous CASTOR2 (human) (UniProt A6NHX0); experiment: anti-HA co-immunoprecipitation, HEK-293T cells (FIG. 2C)
T3 sequence (looked up): T1 sequence (looked up)

[5] = molecular target: T1, recombinant CASTOR2 (protein encoded by the GATSL2 gene) (human); experiment: co-immunoprecipitation, anti-HA IP from HEK-293T cells starved of or restimulated with amino acids; bait CASTOR1-HA, prey CASTOR2-FLAG
[6] = molecular target: T1, recombinant CASTOR2 (protein encoded by the GATSL2 gene) (human); experiment: co-purification from HEK-293T cells, SDS-PAGE with Coomassie blue staining
[7] = molecular target: T2, recombinant CASTOR1 (Cellular Arginine Sensor for mTORC1; protein encoded by the GATS protein-like 3 gene) (human); experiment: co-immunoprecipitation, anti-HA IP from HEK-293T cells starved of or restimulated with amino acids; bait CASTOR1-HA, prey CASTOR1-FLAG
[8] = molecular target: T3, endogenous CASTOR2 (human); experiment: co-immunoprecipitation, anti-HA IP from transfected HEK-293T cells, immunoblot for endogenous CASTOR2
[9] = molecular target: T3, endogenous CASTOR2 (human); experiment: anti-HA co-immunoprecipitation, HEK-293T cells, immunoblot for endogenous CASTOR2 (FIG. 2C)
[10] = molecular target: T1, recombinant CASTOR2 (protein encoded by the GATSL2 gene) (human); experiment: co-immunoprecipitation, anti-HA IP from co-transfected HEK-293T cells starved of all amino acids 50 min; positive control lane
[11] = molecular target: T2, recombinant CASTOR1 (Cellular Arginine Sensor for mTORC1; protein encoded by the GATS protein-like 3 gene) (human); experiment: as above
[12] = molecular target: T1, recombinant CASTOR2 (protein encoded by the GATSL2 gene) (human); experiment: anti-HA co-immunoprecipitation, HEK-293T cells (FIG. 3A)
[13] = molecular target: T2, recombinant CASTOR1 (Cellular Arginine Sensor for mTORC1; protein encoded by the GATS protein-like 3 gene) (human); experiment: as above
[14] = molecular target: T2, recombinant CASTOR1 (Cellular Arginine Sensor for mTORC1; protein encoded by the GATS protein-like 3 gene) (human); experiment: co-immunoprecipitation, anti-HA IP from co-transfected HEK-293T cells, immunoblot; bait CASTOR1-HA, prey CASTOR1-FLAG
[15] = molecular target: T1, recombinant CASTOR2 (protein encoded by the GATSL2 gene) (human); experiment: SDS-PAGE and Coomassie blue staining of purified complexes from HEK-293T cells (FIG. 2D)
[16] = molecular target: T1, recombinant CASTOR2 (protein encoded by the GATSL2 gene) (human); experiment: anti-HA co-immunoprecipitation of differently tagged proteins, HEK-293T cells (FIG. 2A)
[17] = molecular target: T2, recombinant CASTOR1 (Cellular Arginine Sensor for mTORC1; protein encoded by the GATS protein-like 3 gene) (human); experiment: as above

binding [1]: binds
binding [2]: binds
binding [3]: binds
binding [4]: binds
binding [5]: binds
binding [6]: binds
binding [7]: binds
binding [8]: binds
binding [9]: binds
binding [10]: binds
binding [11]: binds
binding [12]: binds
binding [13]: binds
binding [14]: binds
binding [15]: binds
binding [16]: binds
binding [17]: binds
B1: recombinant CASTOR1 (Cellular Arginine Sensor for mTORC1; protein encoded by the GATS protein-like 3 gene) (protein, human, UniProt Q8WTX7 1-329, looked up, not shown: small tags and cut ends)
chain: T2 sequence (looked up)
